PMC12898745, “VOCs Profiling and Quality Assessment of Milk Employing Odorant-Binding Proteins-Based Fluorescence Biosensor” (International Journal of Molecular Sciences, 2026)

Tests used:
[1] = HS-SPME/GC-MS binding assay, PBS only (control); details: control without protein; 10 µM volatile, overnight, room temperature
[2] = Impinger VOC capture into water, quantified by competitive FRET with pOBP; details: 100 mL Milli-Q water, two hours, nitrogen flow

Structure (SMILES)	%RPA, PBS 1X [1] [%RPA]	estimated concentration in the aqueous solution after bubbling [2] [mM]
C=CC(O)CCCCC (centres unmarked) [1-octen-3-ol]	228.4 ± 14.0	1
CCCCCO [1-pentanol]	229.2 ± 7.0	2
CCC(C)=O [2-butanone]	269.8 ± 1.6	–
